Measured values published in paper PMC12097018.
These are yes or no findings as the source states them, for the method shown. Binding seen in cells or lysates may run through a third protein. Some entries that bind do so weakly or less than the wild type.

Chains of the proteins cited; added tags and fusions are not shown.
UniProt Q09472: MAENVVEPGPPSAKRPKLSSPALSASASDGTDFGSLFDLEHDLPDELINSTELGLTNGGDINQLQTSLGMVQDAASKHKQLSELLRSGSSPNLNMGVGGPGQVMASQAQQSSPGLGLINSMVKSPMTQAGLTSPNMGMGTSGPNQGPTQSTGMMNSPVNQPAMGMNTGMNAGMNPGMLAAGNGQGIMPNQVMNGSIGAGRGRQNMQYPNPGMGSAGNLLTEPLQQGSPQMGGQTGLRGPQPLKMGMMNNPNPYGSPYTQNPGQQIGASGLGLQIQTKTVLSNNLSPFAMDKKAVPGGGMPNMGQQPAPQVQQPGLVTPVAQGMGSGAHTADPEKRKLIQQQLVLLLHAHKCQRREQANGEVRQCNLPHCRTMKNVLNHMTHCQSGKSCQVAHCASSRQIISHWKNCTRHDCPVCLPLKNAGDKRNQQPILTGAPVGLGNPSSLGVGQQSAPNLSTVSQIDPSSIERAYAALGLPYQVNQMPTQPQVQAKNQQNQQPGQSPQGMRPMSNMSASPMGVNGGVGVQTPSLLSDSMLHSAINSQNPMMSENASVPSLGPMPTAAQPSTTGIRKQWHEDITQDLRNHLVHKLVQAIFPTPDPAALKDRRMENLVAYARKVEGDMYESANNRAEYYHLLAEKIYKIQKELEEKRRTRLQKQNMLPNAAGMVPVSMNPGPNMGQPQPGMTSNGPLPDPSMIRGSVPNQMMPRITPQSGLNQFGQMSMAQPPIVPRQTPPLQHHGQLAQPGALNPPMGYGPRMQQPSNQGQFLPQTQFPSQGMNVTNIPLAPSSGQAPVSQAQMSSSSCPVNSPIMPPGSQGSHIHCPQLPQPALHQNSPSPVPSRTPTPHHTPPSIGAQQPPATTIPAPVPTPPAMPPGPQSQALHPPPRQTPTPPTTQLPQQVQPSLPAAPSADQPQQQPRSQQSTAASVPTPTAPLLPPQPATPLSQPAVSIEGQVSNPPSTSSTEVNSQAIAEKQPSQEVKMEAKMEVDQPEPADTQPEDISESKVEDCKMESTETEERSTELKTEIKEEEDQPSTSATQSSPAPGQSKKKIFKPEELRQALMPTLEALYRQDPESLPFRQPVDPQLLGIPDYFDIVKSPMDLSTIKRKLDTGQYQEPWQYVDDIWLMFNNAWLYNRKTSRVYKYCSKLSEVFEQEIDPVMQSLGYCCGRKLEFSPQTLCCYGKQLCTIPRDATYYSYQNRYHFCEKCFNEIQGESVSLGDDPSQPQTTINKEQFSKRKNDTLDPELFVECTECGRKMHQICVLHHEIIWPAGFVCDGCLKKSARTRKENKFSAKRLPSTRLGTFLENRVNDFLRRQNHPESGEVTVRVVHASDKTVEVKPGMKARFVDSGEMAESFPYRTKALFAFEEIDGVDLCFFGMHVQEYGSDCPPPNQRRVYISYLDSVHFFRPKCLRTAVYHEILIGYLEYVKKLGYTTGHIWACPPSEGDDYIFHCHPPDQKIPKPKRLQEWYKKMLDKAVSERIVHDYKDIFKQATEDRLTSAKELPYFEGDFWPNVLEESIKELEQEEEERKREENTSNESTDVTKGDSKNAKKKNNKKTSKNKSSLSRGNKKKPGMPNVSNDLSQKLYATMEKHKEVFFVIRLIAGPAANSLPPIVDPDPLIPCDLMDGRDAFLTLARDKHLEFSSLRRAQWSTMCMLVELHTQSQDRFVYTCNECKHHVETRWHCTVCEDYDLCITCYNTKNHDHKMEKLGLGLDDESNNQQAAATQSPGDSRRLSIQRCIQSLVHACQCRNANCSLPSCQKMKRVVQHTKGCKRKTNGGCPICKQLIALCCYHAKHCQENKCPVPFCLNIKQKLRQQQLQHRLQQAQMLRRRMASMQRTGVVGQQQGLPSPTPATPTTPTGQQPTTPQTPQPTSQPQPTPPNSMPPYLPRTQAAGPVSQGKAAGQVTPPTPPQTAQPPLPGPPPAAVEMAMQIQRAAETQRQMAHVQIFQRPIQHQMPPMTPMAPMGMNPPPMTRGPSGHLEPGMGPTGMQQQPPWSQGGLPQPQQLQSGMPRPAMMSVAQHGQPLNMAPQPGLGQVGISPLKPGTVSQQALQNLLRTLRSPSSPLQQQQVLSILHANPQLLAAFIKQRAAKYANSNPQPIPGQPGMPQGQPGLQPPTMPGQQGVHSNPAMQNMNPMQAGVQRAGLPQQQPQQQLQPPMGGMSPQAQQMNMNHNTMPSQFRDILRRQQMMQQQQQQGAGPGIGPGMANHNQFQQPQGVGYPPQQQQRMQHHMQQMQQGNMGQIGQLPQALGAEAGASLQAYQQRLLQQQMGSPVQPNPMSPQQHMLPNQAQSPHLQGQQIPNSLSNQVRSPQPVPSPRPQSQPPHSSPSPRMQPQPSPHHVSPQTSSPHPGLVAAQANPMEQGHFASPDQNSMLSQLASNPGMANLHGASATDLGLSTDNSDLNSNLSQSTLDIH

Key:
[1] = target: T1, SEI1 (full length), expressed from plasmid in HEK293T cells (human) (UniProt Q9UHV2); assay: pull-down; HA-tagged protein from transfected HEK293T lysate held on HA beads, then incubated with lysates of cells transfected with CDC73, PAF1 or p300 plasmid; immunoblot; only the target purified
T1 sequence: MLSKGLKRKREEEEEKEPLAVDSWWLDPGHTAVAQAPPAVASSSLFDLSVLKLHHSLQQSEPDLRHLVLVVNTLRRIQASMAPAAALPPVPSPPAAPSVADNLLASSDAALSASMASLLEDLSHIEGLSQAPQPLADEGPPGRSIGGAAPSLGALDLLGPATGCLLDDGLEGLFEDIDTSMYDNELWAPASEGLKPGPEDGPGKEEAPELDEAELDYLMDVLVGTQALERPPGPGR

[2] = target: T1, SEI1 (full length), expressed from plasmid in HEK293T cells (human); assay: co-IP; HEK293T cells co-transfected with SEI1 and PAF1, CDC73 or p300 plasmid; agarose-immobilized antibody at 4 °C overnight, six washes, immunoblot
[3] = target: T2, SEI1 (SERTA domain-containing protein 1), endogenous in myeloma cells (human (endogenous in ARH-77 or IM-9)) (UniProt Q9UHV2); assay: co-IP; endogenous proteins; lysates of ARH-77 or IM-9 cells treated with melphalan or bortezomib; agarose-immobilized anti-SEI1, PAF1, CDC73 or p300 antibody at 4 °C overnight, six washes, immunoblot; IgG as control
T2 sequence: T1 sequence

[4] = target: p300, endogenous in myeloma cells (human (endogenous in ARH-77 or IM-9)) (UniProt Q09472); assay: as above
[5] = target: MYC‐p300, expressed from plasmid in HEK293T cells (UniProt Q09472); assay: co-IP; HEK293T cells co-transfected with SEI1 and PAF1, CDC73 or p300 plasmid; agarose-immobilized antibody at 4 °C overnight, six washes, immunoblot

With “MYC‐p300, expressed from plasmid in HEK293T cells (from UniProt Q09472 1-2414)” the binding [1] was “binds” and the binding [2] was “binds”.

With “p300, endogenous in myeloma cells (from UniProt Q09472 1-2414)” the binding [3] was “binds”.

B1: SEI1 (SERTA domain-containing protein 1), endogenous in myeloma cells (protein, UniProt Q9UHV2 1-236)
chain: T1 sequence
In the case of B1, the binding [4] is reported as “binds”.

B2: SEI1 (full length), expressed from plasmid in HEK293T cells (protein, UniProt Q9UHV2 1-236)
chain: T1 sequence
B2 was tested, and the binding [5] was “binds”.
